{"source": "PubChem BioAssay AID540256", "about": "(National Center for Advancing Translational Sciences (NCATS), 2011)", "note": "Out of some 300,000 compounds screened, about 3,700 (1.2%) were called active. Inconclusive results, whose numbers are uncertain, are shown with a selection of clear calls. The call rests on the fitted dose curve; tested in HEK293 cells. Potencies beside an inconclusive call are fits to weak or partial responses and may not hold up. On the % scale 0 is the no-effect control and ±100 the full control effect; potency means the concentration at half of the fitted maximal effect.", "data": [{"assay": "qHTS for Inhibitors of binding or entry into cells for Lassa Virus; further: nearly all actives have a fitted effect of over 50% in size", "conditions": "Lassa virus pseudotype entry inhibition, cell reporter; activity change, negative = inhibition: at 37.9 µM (top of the series) unless noted", "values": [{"molecule": "O=C(Nc1ccccc1C(F)(F)F)c1noc2c1CCCCC2", "activity change, negative = inhibition": "inactive: 23.1% [at 46.1 µM]"}, {"molecule": "Cc1cccn2c(=O)c3cc(C(=O)NC4CCCCCC4)sc3nc12", "Potency": "inconclusive: 3.16 µM [inhibitor, single point]"}, {"molecule": "COc1ccc(-c2ccc(SCC(=O)N3CC(=O)Nc4ccccc43)nn2)cc1", "Potency": "inconclusive: 35.5 µM [inhibitor, single point]"}, {"molecule": "O=C(C1CCN(S(=O)(=O)N2CCOCC2)CC1)N1CCN(c2ccccc2F)CC1", "Potency": "inconclusive: 0.146 µM [inhibitor, full curve, poor fit]"}, {"molecule": "O=C(c1ccc2c(=O)n(Cc3ccc(Cl)cc3)c(=S)[nH]c2c1)N1CCOCC1", "Potency": "inconclusive: 4.47 µM [inhibitor, partial curve]"}, {"molecule": "CS(=O)(=O)CCNCc1ccc(-c2ccc3ncnc(Nc4ccc(OCc5ccccc5)cc4)c3c2)o1", "Potency": "active: 15.8 µM"}, {"molecule": "Cc1ccc(OCCCCN2CCCCC2)c(Br)c1", "Potency": "inconclusive: 18.4 µM [inhibitor, single point]"}, {"molecule": "CCOc1ncccc1C(=O)NCCc1c[nH]c2ccccc12", "activity change, negative = inhibition": "inactive: 14.1%"}, {"molecule": "CCOc1ccc(NC(=O)CN(C)C(=O)c2cccnc2SC)cc1OCC", "Potency": "inconclusive: 6.31 µM [inhibitor, single point]"}, {"molecule": "Cc1ccc(-n2nc(CO)c(C(=O)NCCc3ccccc3)n2)cc1C", "Potency": "inconclusive: 35.5 µM [activator, partial curve, poor fit]"}, {"molecule": "CCS(=O)(=O)c1ccc(O)c(NC(=O)/C=C/c2ccc(Cl)cc2)c1", "Potency": "inconclusive: 1.26 µM [inhibitor, full curve, poor fit]"}, {"molecule": "CCc1ccc(N2C(=O)CS(=O)(=O)C23C(=O)N(Cc2ccccc2)c2ccccc23)cc1", "note": "(stereo not given)", "activity change, negative = inhibition": "inactive: -3.63% [at 46.1 µM]"}, {"molecule": "COc1cc(-c2noc(-c3nnn(-c4ccc(Cl)cc4)c3C)n2)cc(OC)c1OC", "activity change, negative = inhibition": "inactive: 23.7% [at 46.1 µM]"}, {"molecule": "CCOC(=O)c1sc(N(Cc2ccccc2)C(=O)COC(=O)c2ccc(O)cc2)nc1C", "Potency": "active: 2.06 µM"}, {"molecule": "CCc1nc2ccccc2c(C(=O)O)c1C", "activity change, negative = inhibition": "inactive: 6.44%"}, {"molecule": "CCOC(=O)c1[nH]c(C)c(C(=O)Nc2ccc(C)c(Cl)c2)c1C", "Potency": "inconclusive: 29.1 µM [inhibitor, partial curve, poor fit]"}, {"molecule": "COc1ccc(N=Nc2[nH]c3ccc(C)cc3c2O)cc1", "Potency": "inconclusive: 1.16 µM [inhibitor, full curve]"}, {"molecule": "COc1ccc(Cc2nc3ccc(C(=O)N4CCCC4)cc3o2)cc1OC", "Potency": "inconclusive: 11.2 µM [inhibitor, partial curve, poor fit]"}, {"molecule": "O=C(O)c1ccc(N=NN2CCCCC2)cc1", "Potency": "inconclusive: 35.5 µM [inhibitor, single point]"}, {"molecule": "Cc1ccc(-n2nc3c(=O)n(C(C)C(=O)O)nc(C)c3c2C)cc1", "note": "(stereo not given)", "activity change, negative = inhibition": "inactive: -8.01% [at 46.1 µM]"}, {"molecule": "O=C(Nc1ccccc1)Nc1ccc(Cl)c([N+](=O)[O-])c1", "Potency": "inconclusive: 13 µM [inhibitor, partial curve]"}, {"molecule": "Cc1c(C(=O)N2CCCC2)c(S(=O)(=O)Nc2ccccc2)c(C)n1C", "Potency": "inconclusive: 12.6 µM [activator, partial curve, poor fit]"}, {"molecule": "COc1cc(OC)c(NC(=S)Nc2cc(Cl)cc(Cl)c2)cc1Cl", "Potency": "inconclusive: 20 µM [inhibitor, single point]"}, {"molecule": "Cc1ccc(CCC(=O)Nc2ccccc2F)s1", "Potency": "inconclusive: 35.5 µM [inhibitor, single point]"}, {"molecule": "O=C(c1cc(-c2ccccc2)on1)N1CCCCCC1", "Potency": "active: 12.6 µM"}, {"molecule": "O=C(NC1CCN(Cc2ccccc2)CC1)c1ccc2c(c1)[nH]c(=O)n2Cc1ccc(F)cc1", "Potency": "inconclusive: 10 µM [inhibitor, partial curve, poor fit]"}, {"molecule": "COc1cc(NC(=O)c2cnn3c(C)cc(C)nc23)c(OC)cc1Cl", "Potency": "inconclusive: 12.6 µM [activator, single point]"}, {"molecule": "CCOP(=O)(OCC)C1(C(=O)O)CCCC1", "activity change, negative = inhibition": "inactive: -1.13%"}, {"molecule": "N#C/C(=C\\c1ccc2c(c1)OCO2)C(=O)NCc1ccco1", "activity change, negative = inhibition": "inactive: 20.4%"}, {"molecule": "Nc1nc2ccccc2n1C(=O)c1ccc(F)cc1", "Potency": "active: 7.08 µM"}, {"molecule": "CCC(=O)NC(c1cccc([N+](=O)[O-])c1)c1c(O)ccc2ccccc12", "note": "(stereo not given)", "Potency": "inconclusive: 35.5 µM [activator, single point]"}, {"molecule": "Cc1ccc(C)c(SCC(=O)OCC(=O)c2ccco2)c1", "activity change, negative = inhibition": "inactive: 10.5%"}, {"molecule": "CC(=O)NCc1ccc(-c2nc3ccccc3s2)cc1", "Potency": "inconclusive: 18.3 µM [inhibitor, partial curve]"}, {"molecule": "C=CCn1c(=O)c(C(=O)NCc2ccc3c(c2)OCO3)c(O)c2ccccc21", "Potency": "inconclusive: 0.891 µM [inhibitor, full curve, poor fit]"}, {"molecule": "COc1cc(CC(NC(C)=O)C(=O)NC2CCN(c3c(Cc4ccccc4)c(C)nc4ncnn34)CC2)cc(OC)c1", "note": "(stereo not given)", "activity change, negative = inhibition": "inactive: 1.34%"}, {"molecule": "CCOC(=O)C1=C(N)OC2=C(C(=O)CC(C)C2)C1c1cccnc1", "note": "(stereo not given)", "Potency": "inconclusive: 7.94 µM [activator, partial curve, poor fit]"}, {"molecule": "COc1ccc(OC)c(NC(=O)CSc2nnc(-c3cccnc3)s2)c1", "Potency": "inconclusive: 35.5 µM [inhibitor, partial curve, poor fit]"}, {"molecule": "COc1ccc(C2OC[C@H]3O[C@H](O)[C@H](NC(C)=O)[C@@H](O)[C@@H]3O2)cc1", "note": "(stereo not given in full)", "Potency": "inconclusive: 12.6 µM [activator, partial curve, poor fit]"}, {"molecule": "CC(C)C(C)NC(=O)CN1C(=O)NC2(CCCCCC2)C1=O", "note": "(stereo not given)", "activity change, negative = inhibition": "inactive: 13.4% [at 46.1 µM]"}, {"molecule": "Cc1ncc([N+](=O)[O-])n1CC(=O)NC(C)(C)C", "Potency": "inconclusive: 10 µM [activator, single point]"}, {"molecule": "CC(=O)N(Cc1cccs1)Cc1cc2cc(C)c(C)cc2nc1Cl", "Potency": "inconclusive: 10 µM [inhibitor, single point]"}, {"molecule": "Cc1cc(=O)[nH]c(N=N/C(=N/Nc2ccc(O)cc2)c2ccccc2)n1", "Potency": "active: 20 µM"}, {"molecule": "Cc1cccc(NC(=O)/C(C#N)=C/c2cn(CC(=O)NCc3ccco3)c3ccccc23)c1C", "activity change, negative = inhibition": "inactive: -26.5%"}, {"molecule": "COC(=O)CN1C(=S)N(c2ccc(OC)cc2)C(=O)/C1=C/c1ccc(OC)cc1", "Potency": "inconclusive: 10 µM [inhibitor, partial curve]"}, {"molecule": "Cc1ccc(Cl)cc1NC(=O)Cn1c(=O)n(CCC(=O)N2CCc3ccccc3C2)c(=O)c2ccccc21", "Potency": "inconclusive: 10 µM [inhibitor, partial curve, poor fit]"}]}]}
